These are yes or no findings as the source states them, for the method shown. In cells and extracts the contact can be indirect. Some binding calls cover weakened binding; strength is not graded here.
Target: T1, Epstein-Barr virus nuclear antigen 5 (Epstein-Barr virus (endogenous in EBV-infected C666-1 and B95-8 cells)) (UniProt Q8AZK7)
T1 sequence: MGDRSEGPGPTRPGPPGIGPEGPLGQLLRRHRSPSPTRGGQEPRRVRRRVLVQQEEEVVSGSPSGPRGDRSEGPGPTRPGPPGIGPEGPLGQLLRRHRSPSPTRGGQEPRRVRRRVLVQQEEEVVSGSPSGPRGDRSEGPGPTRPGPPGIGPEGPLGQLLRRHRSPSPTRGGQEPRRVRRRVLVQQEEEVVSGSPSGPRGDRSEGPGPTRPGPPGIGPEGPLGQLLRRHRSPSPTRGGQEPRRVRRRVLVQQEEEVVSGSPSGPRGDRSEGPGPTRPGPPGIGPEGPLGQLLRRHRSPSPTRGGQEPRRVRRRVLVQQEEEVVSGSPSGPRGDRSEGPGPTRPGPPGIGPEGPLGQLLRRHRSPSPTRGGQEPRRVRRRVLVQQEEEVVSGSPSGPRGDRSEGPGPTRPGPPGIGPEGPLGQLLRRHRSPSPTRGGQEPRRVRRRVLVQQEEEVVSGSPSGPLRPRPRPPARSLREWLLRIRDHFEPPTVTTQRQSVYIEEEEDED
Experiment: co-IP; lysates of C666-1 and B95-8 cells (20 mM HEPES pH 7.9, 100 mM NaCl, 1% NP-40, 0.5 mM EDTA), Catch and Release v2.0 spin columns, 4°C overnight; precipitated with anti-EBNA5 JF186 and blotted with p63 4A4, and the reverse; NP69 cells as negative control

B1: p63 protein (protein, UniProt Q9H3D4 1-680)
chain: MNFETSRCATLQYCPDPYIQRFVETPAHFSWKESYYRSTMSQSTQTNEFLSPEVFQHIWDFLEQPICSVQPIDLNFVDEPSEDGATNKIEISMDCIRMQDSDLSDPMWPQYTNLGLLNSMDQQIQNGSSSTSPYNTDHAQNSVTAPSPYAQPSSTFDALSPSPAIPSNTDYPGPHSFDVSFQQSSTAKSATWTYSTELKKLYCQIAKTCPIQIKVMTPPPQGAVIRAMPVYKKAEHVTEVVKRCPNHELSREFNEGQIAPPSHLIRVEGNSHAQYVEDPITGRQSVLVPYEPPQVGTEFTTVLYNFMCNSSCVGGMNRRPILIIVTLETRDGQVLGRRCFEARICACPGRDRKADEDSIRKQQVSDSTKNGDGTKRPFRQNTHGIQMTSIKKRRSPDDELLYLPVRGRETYEMLLKIKESLELMQYLPQHTIETYRQQQQQQHQHLLQKQTSIQSPSSYGNSSPPLNKMNSMNKLPSVSQLINPQQRNALTPTTIPDGMGANIPMMGTHMPMAGDMNGLSPTQALPPPLSMPSTSHCTPPPPYPTDCSIVSFLARLGCSSCLDYFTTQGLTTIYQIEHYSMDDLASLKIPEQFRHAIWKGILDHRQLHEFSSPSHLLRTPSSASTVSVGSSETRGERVIDAVRFTLRQTISFPPRDEWNDFNFDMDARRNKQQRIKEEGE
- binding: binds

Source: publication PMC1525203
